# Patent US7718186B2, “2-alkoxy-6-alkylphenyl-substituted spirocyclic tetramic acid derivatives” (Bayer CropScience AG, priority 2004, dated 2010)
# Some of these results come from one statement about several compounds together.
# Legend:
# Assay type in all cases: in vivo
# [1] = system: greenhouse red spider mite (Tetranychus urticae); assay: Tetranychus test (OP resistance/spray treatment); conditions: spray on bean leaf disks
# [2] = system: Avena sativa; assay: Herbicidal post-emergence action; conditions: 320 g of a.i./ha, about 3 weeks
# [3] = system: Setaria viridis; assay: Herbicidal post-emergence action; conditions: 320 g of a.i./ha, about 3 weeks
# Method: (§1) 2. Herbicidal Post-emergence Action
# (§2) Seeds of monocotyledonous and dicotyledonous weed and crop plants are placed into sandy loam in wood fiber pots, covered with soil and cultivated in the greenhouse under good growth conditions. Two to three weeks after sowing, the test plants are treated at the one-leaf stage. The test compounds, formulated as wettable powders (WP), are then, in various dosages with a water application rate of 600 l/ha (converted), with 0.2% of wetting agent added, sprayed onto the green parts of the plants. After the test plants have been kept in the greenhouse under optimum growth conditions for about 3 weeks, the effect of the preparations is rated visually in comparison to untreated controls (herbicidal effect in percent (%): 100% effect=the plants have died, 0% effect=like control plants).
# [4] = system: Echinocloa crus-galli; assay: Herbicidal post-emergence action; conditions: 320 g of a.i./ha, about 3 weeks
# Method: as §1, §2
# [5] = system: Lolium multiflorum; assay: Herbicidal post-emergence action; conditions: 320 g of a.i./ha, about 3 weeks
# Method: as §1, §2
# [6] = system: Setaria viridis; assay: Herbicidal pre-emergence action; conditions: 320 g of a.i./ha, 3 weeks
# Excerpt: (§3) 1. Herbicidal Pre-emergence Action
# (§4) Seeds of monocotyledonous and dicotyledonous weed and crop plants are placed into sandy loam in wood fiber pots and covered with soil. The test compounds, formulated in the form of wettable powders (WP) are then, as an aqueous suspension with a water application rate of 600 l/ha (converted), with 0.2% of wetting agent added, applied to the surface of the covering soil in various dosages.
# (§5) After the treatment, the pots are placed in the greenhouse and kept under good growth conditions for the test plants. The visual assessment of the emergence damage on the test plants is carried out after a trial period of 3 weeks by comparison with untreated controls (herbicidal effect in percent (%): 100% effect=the plants have died, 0% effect=like control plants).
# [7] = system: Avena sativa; assay: Herbicidal pre-emergence action; conditions: 320 g of a.i./ha, 3 weeks
# Excerpt: as §3, §4, §5
# [8] = system: Lolium multiflorum; assay: Herbicidal pre-emergence action; conditions: 320 g of a.i./ha, 3 weeks
# Excerpt: as §3, §4, §5
Structure (SMILES),kill rate in % after 5 d ([1]; 500 g/ha) [%],kill rate in % after 5 d ([1]; 100 g/ha) [%],activity (herbicidal effect) against Avena sativa [2] [%],activity (herbicidal effect) against Setaria viridis [3] [%],activity (herbicidal effect) against Echinocloa crus-galli [4] [%],activity (herbicidal effect) against Lolium multiflorum [5] [%],activity (herbicidal effect) against Setaria viridis [6] [%],activity (herbicidal effect) against Avena sativa [7] [%],activity (herbicidal effect) against Lolium multiflorum [8] [%]
CCOC(=O)OC1=C(c2c(CC)cc(C)cc2OC)C(=O)N2CC(OC)CC12 (mixture of isomers) [I-c-8],≥ 70,,,,,,,,
"CCCCOC1CCCC2(C1)NC(=O)C(c1c(CC)cc(C)cc1OC)=C2OC(=O)C(C)C (single isomer, unassigned) [I-b-4]",,≥ 70,,,,,,,
CCc1cc(C)cc(OC)c1C1=C(OC(=O)C(C)C)C(C)(C)NC1=O [I-b-3],,≥ 70,,,,,,,
CCOC(=O)OC1=C(c2c(CC)cc(C)cc2OC)C(=O)N2CCCC12 (stereo not shown) [I-c-2],≥ 70,,≥ 90,≥ 90,≥ 90,≥ 90,≥ 80,≥ 80,≥ 80
CCOC(=O)OC1=C(c2c(CC)cc(C)cc2OC)C(=O)NC1(C)C [I-c-3],,≥ 70,≥ 90,≥ 90,≥ 90,≥ 90,,,
